# Experimental data as given in PubChem BioAssay AID493014 (National Center for Advancing Translational Sciences (NCATS), 2011).
# Some of the results follow. These are further read-outs of the screen, such as a control signal, another cell line or another target. No call is given for them. Most of these compounds were active or inconclusive in the main read-out, so they are no random draw. Potencies come from curve fits of mixed quality, noted in brackets.
# Test: qHTS Assay to Find Inhibitors of Chronic Active B-Cell Receptor Signaling
# Details: ABC-DLBCL IkBa-CBG/CBR reporter, luminescence ratio (green luciferase fused to IkBa over red control in TMD8 lymphoma cells), 4 h
# Summary of the method: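 Doxycycline induced both beetle luciferases in TMD8 lymphoma cells; IKK-driven degradation limits the IkappaBalpha-fused green signal, while red luminescence normalises for cell number and nonspecific effects. Compounds tested up to 46 uM, 4 hrs.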
# [1] = measured here: CBR red luminescence, cell number
# [2] = measured here: IkBa-CBG green luminescence
SMILES,AC50 [1],AC50 [2]
O=C(Nc1nc(-c2ccccc2)ns1)c1ccncc1,"1.58 µM [falling, full curve]",–
Clc1ccc(-c2nnc(CCc3ccccc3)o2)c(Cl)c1,"3.98 µM [rising, full curve]",–
COC(=O)CCCC(=O)N1CCOCCN(C(=O)CCCC(=O)OC)CCOCC1,"3.98 µM [rising, single point]",–
Brc1ccc(-c2csc(NNC3=NCCCCC3)n2)cc1,"6.31 µM [rising, single point]",–
Cc1cs/c(=N\N=C\c2ccc(O)cc2)n1Cc1ccco1,"29.1 µM [falling, single point]",–
Cc1ccccc1NC(=O)Cc1nc(COC(=O)c2cc([N+](=O)[O-])ccc2NCCO)cs1,"18.4 µM [falling, single point]",–
O=C(NCc1cccnc1)c1ccc(-c2cccc(Cl)c2Cl)o1,"25.1 µM [falling, single point]",–
Cc1ccc(C)c(OCCn2cc(/C=C(\C#N)C(=O)NCc3cccs3)c3ccccc32)c1,"0.82 µM [rising, full curve, poor fit]",–
CCOC(=O)c1c(N)sc2c(OCC)c(Br)ccc12,"29.1 µM [rising, single point]",–
Cn1c(=O)n(Cc2ccccc2Br)c2ccccc21,"17.8 µM [rising, partial curve, poor fit]","12.6 µM [falling, partial curve]"
O=C(N/N=C/c1ccc(N2CCCC2)c([N+](=O)[O-])c1)c1cccnc1,"17.8 µM [falling, partial curve]",–
COc1cccc(COc2ccc3c(C)cc(=O)oc3c2)c1,"35.5 µM [rising, single point]",–
CC(OC(=O)c1ccc(O)cc1)C(=O)Nc1ccc(Oc2ccccc2)cc1 (stereo not drawn),"14.6 µM [falling, partial curve, poor fit]",–
CCOc1cc(/C=N/O)ccc1OCc1ccc(C)cc1,"9.2 µM [rising, partial curve]","9.2 µM [falling, partial curve, poor fit]"
COc1ccc(Cc2nnc(SC)[nH]c2=O)cc1,"29.1 µM [falling, single point]",–
Cc1cccc2c1-c1sc(C(=O)Nc3ccccc3N3CCN(C)CC3)cc1CO2,"10 µM [falling, partial curve, poor fit]",–
CCCCOc1ccc(OC(=O)Nc2cc(Cl)ccc2OC)cc1,"8.91 µM [rising, partial curve, poor fit]",–
N#CC1=C(N)n2c(s/c(=C\c3ccco3)c2=O)=C(C#N)C1c1ccco1 (stereo not drawn),"6.51 µM [falling, single point]",–
O=C(CN1CCc2ccccc2C1)Nc1ccccc1C(=O)NC1CC1,"7.31 µM [rising, single point]",–
COc1ccccc1C(=O)O/N=C(\N)c1ccccn1,"1 µM [falling, full curve]",–
CCC(C)(C(=O)NC1CCCC1)N(C)C(=O)c1ccccn1 (stereo not drawn),"0.562 µM [falling, full curve, poor fit]",–
Nc1[nH][nH]c(=O)c1N=Nc1ccc2c(c1)OCO2,"14.1 µM [falling, single point]",–

# Sorted by molar mass (falling): part of the list above
SMILES,AC50 [1],AC50 [2]
Cc1ccccc1NC(=O)Cc1nc(COC(=O)c2cc([N+](=O)[O-])ccc2NCCO)cs1,"18.4 µM [falling, single point]",–
Cc1cccc2c1-c1sc(C(=O)Nc3ccccc3N3CCN(C)CC3)cc1CO2,"10 µM [falling, partial curve, poor fit]",–
N#CC1=C(N)n2c(s/c(=C\c3ccco3)c2=O)=C(C#N)C1c1ccco1 (stereo not drawn),"6.51 µM [falling, single point]",–

# Carrying on:

SMILES,AC50 [1],AC50 [2]
COc1ccc(Cc2nnc(NC(=O)Nc3ccc(C)cc3)s2)cc1OC,"15.8 µM [rising, partial curve, poor fit]",–
CCOC(=O)CC1(CC(=O)OCC)NC(=O)c2c(C)sc(C(=O)OCC)c2N1,"6.51 µM [falling, single point]",–
CCOc1nc(N=C(N)N)nc2c(C)cccc12,"1.41 µM [falling, partial curve, poor fit]",–
CCc1nc2ccc(Cc3ccc4nc(CC)[nH]c4c3)cc2[nH]1,"35.5 µM [falling, single point]",–
CCCN=Cc1sc2ccc(OCC)cc2c1O,"1 µM [rising, full curve, poor fit]",–
FC(F)(F)c1ccc(NCCc2ccccc2)nc1,"11.2 µM [rising, partial curve, poor fit]",–
CCOC(=O)c1c(NC(=S)N2CCOCC2)sc2c1CCN(C(=O)OCC)C2,"22.4 µM [falling, single point]",–
Cc1ccc(C(=O)CCC(=O)Nc2ccccc2C)cc1C,"4.47 µM [falling, partial curve, poor fit]",–
Cc1cccc(C)c1NC(=O)NNC(=O)c1cc(C(C)(C)C)nn1Cc1ccccc1,"0.447 µM [falling, full curve, poor fit]",–
COc1cc(N2CN=c3s/c(=C\c4ccccn4)c(=O)n3C2)cc(OC)c1OC,"2.31 µM [falling, single point]",–
O=S(=O)(NCCc1csc2nc(-c3ccc(F)cc3)nn12)c1ccc2c(c1)OCCO2,"25.1 µM [falling, single point]","12.6 µM [rising, partial curve, poor fit]"
Nc1nonc1-c1nc2ccccc2n1CC(=O)N1CCCCC1,"0.562 µM [falling, partial curve, poor fit]",–
O=C(NCCC1CCCCN1S(=O)(=O)c1ccc(F)cc1)C(=O)Nc1ccccc1F (stereo not drawn),"6.51 µM [falling, partial curve, poor fit]",–
CSc1nc(C)cc(OCC(=O)N/N=C/c2ccccc2O)n1,–,"10.3 µM [falling, partial curve, poor fit]"
Cc1cc(C)nc(NC(=O)Cc2ccc([N+](=O)[O-])cc2)c1,"29.1 µM [rising, partial curve, poor fit]",–
CCCCNC(=O)c1cc(-c2ccc(F)cc2)on1,"2.59 µM [falling, full curve]",–
CS(=O)(=O)c1cccc(C(=O)Nc2ccc(-c3nc4ccccc4[nH]3)cc2)c1,"3.16 µM [falling, partial curve]",–
CCCCn1c(SCC(=O)Nc2cc(C)on2)nnc1-c1cccs1,"35.5 µM [falling, single point]",–
C=CCNc1nc(C(=O)OCC(=O)NCc2cccc(Cl)c2)cs1,"23.1 µM [rising, partial curve, poor fit]",–
COc1cc(C)nc(OCCNC(=O)COc2ccc(Cl)cc2Cl)n1,"23.1 µM [falling, single point]",–
CCN1C(=O)[C@H]2[C@H]3CN=C(SCc4ccccc4)N3[C@@](Cc3ccccc3)(C(=O)OC)[C@H]2C1=O,"25.9 µM [falling, single point]",–
COc1ccccc1NCCC(=O)OCC(=O)Nc1ccccc1Cl,"6.51 µM [rising, single point]",–

SMILES,AC50 [1],AC50 [2]
COc1ccc(-n2ncc(Cl)c(Cl)c2=O)cc1,"3.98 µM [falling, full curve]",–
O=C(NCc1ccccc1)C1=C[C@@H](c2ccc(Br)cc2)C[C@@H](OCCCCO)O1,"3.98 µM [rising, single point]",–
CC(C)Cn1nc(NC(=O)c2cccs2)c2cc3ccccc3nc21,"3.98 µM [falling, partial curve, poor fit]","6.31 µM [rising, full curve]"
CC(C)CNS(=O)(=O)c1ccc(CCC(=O)N2CCN(c3ccc(F)cc3)CC2)cc1,"12.6 µM [falling, single point]",–
COc1ccc(Nc2nnc(SCC3CCCCO3)s2)cc1 (stereo not drawn),"12.6 µM [rising, single point]",–
CC(=O)c1c(C)[nH]c(C(=O)CSc2nnc(-c3ccco3)n2Cc2ccccc2)c1C,"0.562 µM [rising, full curve, poor fit]",–
CCCOc1ccc(C(=O)NCCC(=O)NCCCC(=O)O)cc1,"35.5 µM [rising, single point]",–
N#Cc1nc(-c2ccco2)oc1N1CCc2ccccc2C1,"11.6 µM [rising, partial curve, poor fit]",–
Cn1c(-c2sccc2OCc2ccccc2)n[nH]c1=S,"35.5 µM [falling, single point]",–
O=C(NCCc1ccc(Cl)cc1)C1CCC(=O)N1Cc1ccc(F)cc1 (stereo not drawn),"0.461 µM [falling, partial curve, poor fit]",–
Cc1ccnc(SCc2ccc([N+](=O)[O-])cc2)n1,"6.31 µM [rising, single point]",–
CN=c1scc(-c2cc(OC)ccc2OC)n1/N=C/c1c(C)[nH]c2ccccc12,"13 µM [rising, partial curve]",–
Cc1ccccc1OCC(=O)N/N=C/c1ccc([N+](=O)[O-])o1,"8.2 µM [falling, partial curve, poor fit]",–
CCC1(CC)NC(=O)N(CC(=O)OCC(=O)Nc2ccc(F)c(F)c2F)C1=O,"11.2 µM [rising, partial curve]",–
CCCc1nc2ccccc2c(=O)n1/N=C/c1ccccc1O,"5.01 µM [falling, full curve, poor fit]",–
Cc1cc(=O)n2[nH]c(COc3ccccc3)nc2n1,"7.31 µM [falling, partial curve]",–
Cc1cccc(NC(=O)/C(=C\c2ccc([N+](=O)[O-])o2)NC(=O)c2ccc(Cl)cc2)c1,"0.58 µM [falling, full curve]",–
O=C(CCc1ccccc1)NC(NC(=S)Nc1ccc(Br)cc1)C(Cl)(Cl)Cl (stereo not drawn),"29.1 µM [rising, single point]",–
Cc1onc(-c2c(F)cccc2Cl)c1C(=O)OCC(=O)c1c[nH]c2ccccc12,"35.5 µM [falling, single point]",–
O=C(/C=C/c1cccc([N+](=O)[O-])c1)N1CCOCC1,"29.1 µM [rising, single point]",–
